Measured values: patent US10570177B2, “P3 peptidylic inhibitors for treating CAG-repeat RNA toxicity in polyglutamine diseases” (The Chinese University of Hong Kong, priority 2017, dated 2020)
At least one peptide structure holds a part that was inferred or is arguable (an end, a ring closure or a residue). Some entries share one result that the patent states for a list of compounds. Some ranges recur; such a range may be that of the whole group of compounds. No end group written: not given here.

Assays:
MJDCAG78 RNA = assay: Isothermal titration calorimetry binding assay, expanded MJDCAG78 RNA; conditions: for reduction of binding affinity to expanded CAG RNA: Ala mutants relative to P3; for Kd: ITC at 25° C., 0.7 mM peptide titrated into 0.5 μM MJDCAG78 RNA, one binding site model, mean ± S.E.M.
Experimental: Experiments were carried out using a MicroCal iTC200 isothermal titration calorimeter (GE Healthcare) at 25° C. Data were analyzed using the Origin® scientific plotting software version 7 (Microcal Software Inc.). All RNAs and peptides were dissolved in binding buffer (20 mM MOPS, pH 7.0; 300 mM NaCl) and 0.7 mM of peptide was titrated into 0.5 μM of RNA for each experiment. The concentration of RNA was estimated with appropriate extinction coefficients at 260 nm on a Nanodrop 2000 (Thermo Scientific). A reference power of 8 μcal/s was used with an initial 0.5 μl of injection of peptide followed by 2 μl for all subsequent titrations points with a 60 sec initial equilibrium delay and 150 sec pause between injections. The samples were stirred at a speed of 1000 rpm throughout the experiment. The thermal titration data were fitted to the ‘one binding site model’ to determine the dissociation constant (KD). Each experiment was repeated at least 3 times with consistent results obtained.

[1] = tested on: EGFPCAG78 RNA-expressing HEK293 cells; format: cell-based; conditions: lower than 1 μM, with or without DeliverX
Experimental: HEK293 cells were cultured at 37° C. with 5% CO2 in DMEM supplemented with 10% FBS and 1% penicillin-streptomycin. Primary rat cortical neurons were isolated and cultured as previously described^37. Transient transfection of HEK293 cells was performed using Lipofectamine 2000 (Life Technologies). P3V8 were delivered to HEK293 cells using the DeliverX (DX) Peptide Transfection Kit (Affymetrix) 4 hr after DNA transfection. At least two batches of independently synthesized peptides were used in the experiments.
HEK 293 cells were seeded on a 24-well plate at a density of 0.5×10^5, and pEGFPCAG78 DNA construct was used to transfect the cells. For P3V8 treatment, different concentrations of P3V8 as indicated in the figure were transfected by DeliverX transfectant 4 hr after DNA transfection. […] Seventy-two hours after treatment, LDH enzyme activity in the cell culture medium was measured as described before. Experimental groups were normalized to the untransfected control. After normalization, data were analyzed using the dose response-inhibition curve (nonlinear regression-variable slope) to determine the IC50 value (Prism6 software, GraphPad Software, Inc.). Each experiment was repeated at least 3 times.

DsRedCAG100 flies = assay: Pseudopupil assay in DsRedCAG100 Drosophila (expanded CAG RNA neurodegeneration); format: in vivo; conditions: 50 μM peptide fed to third instar larvae; 12 day-old flies
Excerpt: Here the DsRedCAG0/100Drosophila model was utilized to investigate the suppressive effects of the P3 analogs on RNA toxicity. In this model, the CAG repeat is located in the 3′ untranslated region of the DsRed reporter gene-=. The transcribed expanded CAG RNA is not translated into polyQ protein, and thus the toxicity is solely attributed to the expression of DsRedCAG100 RNA. In brief, the expression of expanded CAG RNA causes severe retinal degeneration in the animal that can be quantified by a pseudopupil assay^7. Inhibitors that can suppress neurotoxicity will result in the recovery of the number of rhabdomeres within the ommatidium. To test the derivatives, third instar larvae were fed different amounts of peptide dissolved in sucrose solution for 2 hr and then allowed to culture in standard fly food until the flies were 12 days old, at which time they were sacrificed for the pseudopupil assay.
Flies were raised at 21.5° C. on cornmeal medium supplemented with dry yeast. Fly lines bearing UAS-DsRedCAG0 and UAS-DsRedCAG100 were kind gifts of Professor Nancy Bonini (University of Pennsylvania, USA). The gmr-GAL4 fly line was obtained from Bloomington Drosophila Stock Center. […] Viability from egg-to-adult was calculated as the number of adult flies collected divided by the number of eggs examined. […]

Sequence	reduction of binding affinity to expanded CAG RNA (MJDCAG78 RNA)	suppression of expanded CAG RNA-induced cell death [1]	pseudopupil score (DsRedCAG100 flies)	Kd (MJDCAG78 RNA) [µM]	Kd (MJDCAG78 RNA; listed as P3) [µM]
DGASKGIAYIEFK [P3MT1]	3-12 fold				
DGKSAGIAYIEFK [P3MT2]	3-12 fold				
DGKSKGIAYIEFA [P3MT5]	3-12 fold				
DGKSKGIAYIEFK [P3WT, reference compound]		did not elicit any significant suppression effect	3.74±0.05	8.37 ± 3.83	~8.4
